Data from PubChem BioAssay AID1487 (National Center for Advancing Translational Sciences (NCATS), 2009).
This is one part of the list. The main result of the screen is listed elsewhere. These columns were measured beside it and carry no call. Most of these compounds were active or inconclusive in the main read-out, so they are no random draw. Potencies come from curve fits of mixed quality, noted in brackets.

Assay: qHTS Assay for Modulators of Lamin A Splicing
Details: HeLa LMNA splicing GFP/RFP minigene ratio, 48 h
Method in brief: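 S3 HeLa cells stably expressing lamin A-EGFP splicing minigene plus DsRed2, 600 cells/well, 48 h compound exposure at 37C. Laser-scanning cytometry; analysed as GFP (500-530 nm)/RFP (575-640 nm) total intensity ratio; 0.5% DMSO vehicle.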

[1] = measured here: RFP viability control channel
[2] = measured here: GFP splicing reporter channel

| Structure (SMILES) | AC50 [1] | AC50 [2] |
| --- | --- | --- |
| COc1ccc(/C=N/NC(=O)CNC(=O)c2ccc(S(=O)(=O)N3CCCC3)cc2)c(OC)c1 | 0.2 µM [falling, full curve, poor fit] | – |
| CCCOc1ccc2oc(=O)c3c(c2c1)CCCN3C(=O)CN(C)Cc1ccccc1 | 17.8 µM [rising, partial curve] | 15.8 µM [rising, single point] |
| CCC(C(=O)c1ccc(O)cc1)c1ccccc1 (stereo not drawn) | 22.4 µM [rising, single point] | 14.1 µM [rising, single point] |
| CCCCOC(=O)c1[nH]c2c(c1C)C(=O)CC(c1cc(OC)c(OC)c(OC)c1)C2 (stereo not drawn) | 0.0398 µM [rising, full curve, poor fit] | – |
| COc1ccc(CNC(=O)C(C)N2Cc3ccccc3C2=O)cc1 (stereo not drawn) | – | 0.0891 µM [falling, full curve, poor fit] |
| N#Cc1c(-c2ccc3c(c2)OCO3)ccn2nc(-c3cccc(C(F)(F)F)c3)nc12 | 20 µM [falling, partial curve] | 22.4 µM [falling, single point] |
| CCOC(=O)c1c(NC(=O)c2cnn3c2NC(c2cccc(OC)c2)CC3C(F)(F)F)sc2c1CCCC2 (stereo not drawn) | 3.55 µM [rising, full curve, poor fit] | – |
| O=C(COC(=O)C12CC3CC(CC(Br)(C3)C1)C2)Nc1cccnc1Cl | 0.00891 µM [falling, full curve] | 3.98 µM [falling, partial curve, poor fit] |
| O=C(CSc1nc2ncc(Br)cc2[nH]1)c1cccc([N+](=O)[O-])c1 | – | 17.8 µM [falling, partial curve] |
| O=C(NCc1cccnc1)/C(=C\c1ccc(-c2ccc(Cl)c(Cl)c2)o1)S(=O)(=O)c1ccccc1 | 3.55 µM [falling, full curve] | 17.8 µM [falling, single point] |
| CCCCN(CC)S(=O)(=O)c1ccc(C(=O)Nc2nnc(-c3ccccc3Cl)o2)cc1 | 7.94 µM [rising, partial curve] | – |
| Nc1nc(N)nc(-c2cc(Cl)ccc2Cl)n1 | – | 1.26 µM [falling, single point] |
| CN(Cc1cccc(Cl)c1Cl)c1ccc(S(=O)(=O)N2CCCCC2)cc1[N+](=O)[O-] | 25.1 µM [rising, partial curve] | 11.2 µM [rising, partial curve] |
| O=C(NNc1nc(-c2ccccc2)c2cc(Br)ccc2n1)c1ccc(S(=O)(=O)N2CCOCC2)cc1 | 12.6 µM [rising, partial curve] | 6.31 µM [rising, partial curve] |
| O=C(NCc1ccccc1Cl)c1ccc(CSCc2cccc(F)c2)o1 | 28.2 µM [rising, single point] | 10 µM [rising, partial curve, poor fit] |
| COc1cc(OC)c(C2=NOC(C(=O)NCc3ccc4c(c3)OCO4)C2)cc1Cl (stereo not drawn) | 25.1 µM [rising, single point] | – |

Single records (already shown):
N#Cc1c(-c2ccc3c(c2)OCO3)ccn2nc(-c3cccc(C(F)(F)F)c3)nc12 is listed with AC50 [1]: 20 µM [falling, partial curve]; AC50 [2]: 22.4 µM [falling, single point]
O=C(NNc1nc(-c2ccccc2)c2cc(Br)ccc2n1)c1ccc(S(=O)(=O)N2CCOCC2)cc1 is listed with AC50 [1]: 12.6 µM [rising, partial curve]; AC50 [2]: 6.31 µM [rising, partial curve]

(list continues)

| Structure (SMILES) | AC50 [1] | AC50 [2] |
| --- | --- | --- |
| C=CCOc1c(OC)cc(Cl)cc1C1NC(=O)NC(C)=C1C(C)=O (stereo not drawn) | – | 14.1 µM [rising, partial curve, poor fit] |
| CCN1CCCC1CNC(=O)c1cc(S(=O)(=O)CC)c(N)cc1OC (stereo not drawn) | 3.98 µM [rising, single point] | 3.16 µM [rising, single point] |
| COCc1cc(=O)[nH]c(/N=C(\N)Nc2ccc(Oc3ccccc3)cc2)n1 | 0.01 µM [falling, full curve, poor fit] | – |
| Cc1ccc(NC(c2nnc(-c3ccccc3)o2)c2ccccc2F)c([N+](=O)[O-])c1 (stereo not drawn) | 3.16 µM [rising, single point] | 15.8 µM [falling, partial curve] |
| O=[N+]([O-])c1ccc(N2CCN(c3ccc(O)cc3)CC2)c(Cl)c1 | 14.1 µM [rising, partial curve] | – |
| CC1C/C(=N/Nc2nc3ccccc3[nH]2)CC(C)(C)C1 (stereo not drawn) | 22.4 µM [rising, partial curve] | 11.2 µM [rising, partial curve, poor fit] |
| O=C(c1ccc(Cl)s1)N1CCN(c2nc3ccccc3s2)CC1 | 11.2 µM [rising, single point] | – |
| Oc1c(C(c2ccc(Cl)cc2)N2CCCC2)cc(Cl)c2cccnc12 (stereo not drawn) | 22.4 µM [falling, partial curve, poor fit] | 3.55 µM [falling, partial curve] |
| Cc1cccc(C)c1OC[C@H](C)N | 3.16 µM [rising, single point] | 0.0631 µM [falling, full curve, poor fit] |
| Cc1cccc(C)c1Nc1nnc(SCC(=O)Nc2sccc2C#N)s1 | 3.98 µM [rising, partial curve, poor fit] | 1.12 µM [rising, single point] |
| O=C(O)c1ccccc1Nc1ccc([N+](=O)[O-])cc1 | 3.16 µM [rising, partial curve] | – |
| COc1ccccc1CNC(=O)CCC1N=C2c3ccccc3N=C(SCc3ccccc3Cl)N2C1=O (stereo not drawn) | 6.31 µM [falling, single point] | – |
| O=C(CCCCCCN1C(=O)c2ccccc2C1=O)Nc1nccs1 | – | 31.6 µM [rising, single point] |
| C=C(C)[C@@H]1CCC2(C(=O)O)CC[C@]3(C)[C@H](CC[C@@H]4[C@@]5(C)CCC(=O)C(C)(C)[C@@H]5CC[C@]43C)[C@@H]12 (stereo partly drawn) | 0.794 µM [rising, full curve] | 0.0891 µM [rising, full curve, poor fit] |
| CCOC(=O)c1sc2ccccc2c1S(=O)(=O)NCc1ccc(F)cc1 | – | 3.98 µM [falling, partial curve, poor fit] |
| COC(=O)c1cc2c(ccn2-c2ccc(F)cc2)n1Cc1ccc(C#N)cc1 | 28.2 µM [rising, single point] | 15.8 µM [rising, single point] |
